In PubChem BioAssay AID377 (PDSP, 2006):
The source calls these results inconclusive, neither active nor inactive. Rule as the data show it: active = fluorescence slope change above about 50%; inconclusive = mostly about 31% to 49%; inactive = weaker than that.

By UniProt entry, the sequences of proteins in these tests, tags left out.
UniProt P08183, whole entry: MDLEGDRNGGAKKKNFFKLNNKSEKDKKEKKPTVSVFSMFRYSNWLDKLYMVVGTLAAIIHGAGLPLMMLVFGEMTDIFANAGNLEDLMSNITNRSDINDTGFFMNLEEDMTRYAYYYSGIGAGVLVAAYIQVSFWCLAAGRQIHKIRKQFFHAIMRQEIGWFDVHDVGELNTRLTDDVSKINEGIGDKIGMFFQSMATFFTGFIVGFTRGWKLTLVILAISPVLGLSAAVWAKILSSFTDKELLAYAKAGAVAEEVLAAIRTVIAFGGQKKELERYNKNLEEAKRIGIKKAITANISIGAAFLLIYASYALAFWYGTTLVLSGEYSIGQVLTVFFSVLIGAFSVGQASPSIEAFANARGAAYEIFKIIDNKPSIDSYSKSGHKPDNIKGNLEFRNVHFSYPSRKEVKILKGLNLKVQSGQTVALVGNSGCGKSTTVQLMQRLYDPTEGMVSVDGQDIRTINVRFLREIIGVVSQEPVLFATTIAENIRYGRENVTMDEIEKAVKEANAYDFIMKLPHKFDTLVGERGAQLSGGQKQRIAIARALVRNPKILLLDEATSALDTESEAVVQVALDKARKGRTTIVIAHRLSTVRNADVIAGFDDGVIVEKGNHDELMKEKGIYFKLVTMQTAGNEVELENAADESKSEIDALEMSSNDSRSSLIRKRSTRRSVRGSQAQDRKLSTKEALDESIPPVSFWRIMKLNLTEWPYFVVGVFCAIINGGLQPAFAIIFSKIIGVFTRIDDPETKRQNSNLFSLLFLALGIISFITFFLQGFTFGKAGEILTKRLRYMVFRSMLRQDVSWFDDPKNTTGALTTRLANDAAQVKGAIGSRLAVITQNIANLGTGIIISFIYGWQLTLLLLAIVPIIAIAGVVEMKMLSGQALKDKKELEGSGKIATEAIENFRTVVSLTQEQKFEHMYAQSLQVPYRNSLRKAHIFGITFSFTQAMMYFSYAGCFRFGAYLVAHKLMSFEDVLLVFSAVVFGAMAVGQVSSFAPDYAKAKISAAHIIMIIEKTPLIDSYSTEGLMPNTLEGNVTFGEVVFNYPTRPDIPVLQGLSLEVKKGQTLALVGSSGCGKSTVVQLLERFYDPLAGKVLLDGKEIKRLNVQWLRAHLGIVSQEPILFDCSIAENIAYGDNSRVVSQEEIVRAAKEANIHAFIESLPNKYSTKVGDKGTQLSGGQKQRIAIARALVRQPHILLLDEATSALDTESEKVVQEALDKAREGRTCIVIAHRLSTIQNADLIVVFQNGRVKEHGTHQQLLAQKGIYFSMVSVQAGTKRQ

Target: ATP-dependent translocase ABCB1 (Homo sapiens) (UniProt P08183)
Assay: MDR1 (ABCB1) efflux transporter inhibition, cell-based (AID 377)
Conditions: MDR1-expressing cells, fluorescent substrate accumulation slope; hits give high values; concentration not given here

CN(CCCl)CCCl
fluorescence slope change: inconclusive: 33.9%
